Results as given in PubChem BioAssay AID540276 (National Center for Advancing Translational Sciences (NCATS), 2011).
“And” between values parts separate entries of the source, which are not always exact repeats. Equal entries are not always repeated. In all, about 300,000 compounds went through this assay and about 5,400 (1.8%) were called active. The inconclusive results got no clear call from the source; some entries with a clear call stand among them for comparison. Calls come from the whole dose curve; tested in HEK293 cells. Potencies of inconclusive entries are doubtful fits and often do not repeat.

Experiment: qHTS for inhibitors of binding or entry into cells for Marburg Virus
Conditions: Marburg virus pseudotyped entry inhibition, cell reporter; series mostly up to 37.8 µM
Potency is the fitted concentration of half-maximal effect.

Row | Structure (SMILES) | Potency
1 | COC(=O)c1ccc(N/N=C/c2cc([N+](=O)[O-])cc(OC)c2O)cc1 | inconclusive: 10 µM [activator, partial curve, poor fit]
2 | Cc1ccc(-n2nnnc2-c2ccco2)cc1 | inactive
3 | Cn1nc(C(=O)NCc2ccccn2)c2ccccc2c1=O | inconclusive: 0.184 µM [inhibitor, full curve]
4 | O=C(NC1CCCCC1)c1ccc(CSc2nc3ccncc3n2Cc2cccc(F)c2)cc1 | inconclusive: 15.8 µM [inhibitor, single point]
5 | COc1cccc2c1OC1(C)CC2NC(=O)N1c1cccc(C(=O)Nc2ccc3c(c2)OCCO3)c1 (stereo unspecified) | inactive
6 | Cc1ccc(Cl)cc1NC(=O)c1cnn2c1NC(c1ccco1)CC2C(F)(F)F (stereo unspecified) | inconclusive: 29.1 µM [inhibitor, single point]
7 | Nc1ccc(O)c2c1C(=O)c1ccccc1C2=O | inactive
8 | Cc1ccc(C2(C)NC(=O)N(CC(=O)Nc3ccc(-c4nc5ccc(C)cc5s4)cc3)C2=O)cc1 (stereo unspecified) | inactive
9 | Cc1ccc(/C=C2/CNC/C(=C/c3ccc(C)cc3)C2=O)cc1 | inconclusive: 4.47 µM [inhibitor, full curve, poor fit]
10 | CCOC(=O)c1c(NCc2ccc3c(c2)OCO3)c2ccccc2[nH]c1=O | inconclusive: 35.5 µM [activator, single point]
11 | O=S(=O)(Cc1ccccc1)CS(=O)(=O)Cc1ccccc1 | inactive
12 | COC(=O)c1sccc1NC(=O)Cc1ccc(OC)c(OC)c1 | inconclusive: 32.6 µM [inhibitor, single point]
13 | COc1ccc(N2CCN(C(=O)c3ccc(OCc4c(C)noc4C)c(OC)c3)CC2)cc1 | inconclusive: 20 µM [activator, partial curve, poor fit]
14 | O=C(/C=C/c1ccccc1F)N1CCN(c2ccccn2)CC1 | inconclusive: 6.31 µM [activator, single point]
15 | COC(=O)[C@H]1[C@H]2C[C@@H]3c4[nH]c5cc(OC)ccc5c4CCN3C[C@H]2C[C@@H](OC(=O)c2cc(OC)c(OC)c(OC)c2)[C@@H]1OC | active: 3.55 µM and active: 10.3 µM
16 | NC(=O)c1ccc(N=Cc2ccc([N+](=O)[O-])s2)cc1 | inconclusive: 35.5 µM [inhibitor, single point]
17 | O=C(COc1ccc(C2SCCS2)cc1)NNC(=O)C(Cl)Cl | inconclusive: 2.51 µM [activator, full curve, poor fit]
18 | CCN(CC)CCCNC(=O)Cn1cnc2sc(C)c(S(=O)(=O)N3CCN(c4ncccn4)CC3)c2c1=O | inconclusive: 0.891 µM [activator, full curve, poor fit]
19 | CC(C)OC(=O)Cn1c(=O)oc2ccccc21 | inactive
20 | Cc1cc(/C=N/NC(=O)C(O)(c2ccccc2)c2ccccc2)c(C)n1-c1ccc(C(=O)O)cc1 | inconclusive: 6.31 µM [activator, partial curve, poor fit]
21 | COc1ccc(OC)c(N(C(=O)c2snc(C(N)=O)c2N)C(C(=O)NCc2ccccc2)c2ccc(O)cc2)c1 (stereo unspecified) | inactive
22 | CN(C(=O)COC(=O)CCc1c[nH]c2ccccc12)C(c1ccccc1)c1ccccc1 | inconclusive: 15.8 µM [inhibitor, single point]

Three structures from above, sorted by formula weight, smallest number first.
Row | Structure (SMILES) | Potency
2 | Cc1ccc(-n2nnnc2-c2ccco2)cc1 | inactive
11 | O=S(=O)(Cc1ccccc1)CS(=O)(=O)Cc1ccccc1 | inactive
8 | Cc1ccc(C2(C)NC(=O)N(CC(=O)Nc3ccc(-c4nc5ccc(C)cc5s4)cc3)C2=O)cc1 (stereo unspecified) | inactive

Next structures.

Row | Structure (SMILES) | Potency
23 | Cc1nn(Cc2ccc(C(=O)NC3CCCCC3)o2)c(C)c1Br | inconclusive: 1.46 µM [inhibitor, partial curve, poor fit]
24 | COc1cc(SC)ccc1C(=O)Nc1ccccn1 | inconclusive: 0.562 µM [activator, full curve, poor fit]
25 | Cc1ccc(NC(=O)n2ncc3c(C)cccc32)c(C)c1 | inconclusive: 11.2 µM [activator, partial curve]
26 | O=C(CSc1nnc2scc(-c3ccc(Cl)cc3)n12)Nc1ccc(F)cc1 | inactive
27 | N/C(Cc1nc(-c2ccc(Br)cc2)cs1)=N\O | inconclusive: 2.51 µM [activator, partial curve, poor fit]
28 | CCOCCCNC(=O)C(c1ccc(C)cc1)N(Cc1ccc2c(c1)OCO2)C(=O)c1ccccc1O (stereo unspecified) | inconclusive: 10 µM [inhibitor, partial curve, poor fit]
29 | CCn1c(SCC(=O)NNC(=O)c2ccc(OC)cc2)nnc1C1CC1 | inactive
30 | CCc1nn(CC(=O)N2CCN(c3cccc(C)c3)C(C)C2)c(=O)c2cc3sccc3n12 (stereo unspecified) | inconclusive: 20 µM [inhibitor, single point]
31 | COC(=O)Cc1c[nH]c2cccc(OCC(O)CN(Cc3ccc([N+](=O)[O-])cc3)C(C)(C)C)c12 (stereo unspecified) | inconclusive: 29.1 µM [inhibitor, single point]
32 | c1ccc(CN2CCC(=NNc3nc4ccccc4[nH]3)CC2)cc1 | inconclusive: 35.5 µM [inhibitor, single point]
33 | O=C(CN(C1CCCCC1)C1CCCCC1)N1CCc2ccccc2C1 | inconclusive: 31.6 µM [inhibitor, single point]
34 | CC(=O)Nc1ccc(NC(=O)C(C)OC(=O)c2cccs2)cc1 (stereo unspecified) | inactive
35 | c1ccc2c(CNc3ccc(CNc4ncn[nH]4)cc3)cccc2c1 | inactive
36 | Cc1ccccc1OCC(=O)NCC(c1ccco1)N1CCCCC1 (stereo unspecified) | inconclusive: 35.5 µM [inhibitor, single point]
37 | CCC(=O)c1ccc(OCc2ccccc2)c(OC)c1 | inconclusive: 2.59 µM [activator, single point]
38 | CCn1c(CCNC(=O)c2ccc(OC)cc2)nnc1SCc1ccc(Cl)c(Cl)c1 | inconclusive: 20 µM [inhibitor, single point]
39 | Cc1ccc(-c2noc(CCC(=O)NCCN3CCOCC3)n2)cc1 | inconclusive: 31.6 µM [activator, single point]
40 | COc1cccc(N2CCN(C(=O)Cn3c(=O)oc4ccccc43)CC2)c1 | inconclusive: 2.51 µM [inhibitor, partial curve]
41 | OC(COCCOc1ccc(Br)cc1)CN1CCN(Cc2ccccc2)CC1 (stereo unspecified) | inconclusive: 20.6 µM [inhibitor, single point]
42 | O=C(Nc1ccc(N2CCOCC2)c(Cl)c1)c1cccc(-n2cnnc2)c1 | inconclusive: 0.891 µM [activator, full curve, poor fit]
43 | CCCS(=O)(=O)c1c(S(=O)(=O)CCC)c2c(N)cccn2c1C(=O)c1ccc(Br)cc1 | inconclusive: 11.2 µM [inhibitor, partial curve, poor fit]
44 | O=S(=O)(NC1=NCCC1)c1cccc(NC(=S)NCCc2ccccc2)c1 | inconclusive: 2.51 µM [inhibitor, partial curve, poor fit]

Row | Structure (SMILES) | Potency
45 | CCN(CC)CCN(Cc1cc2cc3c(cc2[nH]c1=O)OCO3)C(=S)NCc1ccco1 | inconclusive: 25.1 µM [inhibitor, partial curve, poor fit]
46 | CC(Oc1ccc(-c2ccccc2)c(F)c1)c1ccn(S(=O)(=O)c2ccc(F)cc2)n1 (stereo unspecified) | inconclusive: 32.6 µM [inhibitor, single point]
47 | CC(C)C(=O)Nc1ccc(N2CCCC2)c(Cl)c1 | inconclusive: 22.4 µM [activator, single point]
48 | C=CCN1c2ccc(Br)cc2C(O)CS1(=O)=O (stereo unspecified) | inconclusive: 0.995 µM [inhibitor, partial curve, poor fit]
49 | Cc1cc(C)cc(N(CC(=O)Nc2ccccc2-c2ccccc2)S(=O)(=O)c2ccccc2)c1 | inactive
50 | S=c1[nH]cc(-c2ccccc2)n1-c1ccccc1Cl | inconclusive: 35.5 µM [inhibitor, single point]
51 | Cc1nn(-c2ccccc2)c2sc(C(=O)NCCN3CCOCC3)cc12 | inconclusive: 35.5 µM [inhibitor, single point]
52 | CCOC(=O)Nc1sc(C)c(C)c1C(=O)OCC | inconclusive: 1.26 µM [inhibitor, partial curve, poor fit]
53 | Cc1cccc2cc(CN(CC3CCCO3)C(=S)Nc3ccccc3)c(=O)[nH]c12 (stereo unspecified) | inconclusive: 2.51 µM [activator, single point]
54 | O=C(COC(=O)C1CCCO1)Nc1cccc(C(F)(F)F)c1 (stereo unspecified) | inactive
55 | CN(C)c1cc(-c2ccc(Br)cc2)oc(=O)c1Cl | inconclusive: 35.5 µM [inhibitor, single point]
56 | O=C(Nc1ccc2c(c1)OCO2)C1CC(c2ccccc2Cl)=NO1 (stereo unspecified) | inconclusive: 16.4 µM [activator, partial curve, poor fit]
57 | CCN1CCN(c2cc(C)c3cc(NC(=O)c4cccnc4Cl)ccc3n2)CC1 | inconclusive: 23.1 µM [inhibitor, single point]
58 | Cc1ccc2c(Sc3ccc(Cl)cc3)c(C(=O)N3CCCCC3)[nH]c2c1 | inconclusive: 35.5 µM [inhibitor, single point]
59 | O=C(NC(=S)Nc1ccc2cn[nH]c2c1)c1ccccc1 | inactive
60 | Cc1ccc(NC(=O)c2ccc(-n3cncn3)c([N+](=O)[O-])c2)cc1 | inactive
61 | CCCCC(=O)Nc1cccc(-c2nnc(-c3ccccc3)o2)c1 | inactive
62 | CC1CCCCN1Cc1nc2c(c(=O)n(C)c(=O)n2C)n1Cc1ccc(Br)cc1 (stereo unspecified) | inactive
63 | COc1ccc(Br)cc1C(=O)Nc1ccc(C(=O)O)cc1 | inactive
64 | O=C(CSc1nc2c(c(C(F)(F)F)n1)CCc1ccccc1-2)NCc1ccccc1 | inconclusive: 1.41 µM [inhibitor, partial curve, poor fit]
65 | COc1ccc(N2C(=O)CC(=O)NC2=O)cc1 | inactive
66 | CN(CC(=O)Nc1ccc(N2CCOCC2)cc1)C(=O)c1ccc(O)c(Cl)c1 | inconclusive: 3.98 µM [activator, partial curve, poor fit]
